Measurements published in the supplement of paper PMC8728848.
Some of the results follow.

What was measured:
Assay in all cases: glycan array binding signal (z-score within array); higher = stronger binding
Conditions in all cases: glycan notation: IUPAC condensed, linker removed
[1] = molecular target: Man(a1-2)Man(a1-3)[Man(a1-2)Man(a1-6)]Man(a1-6)[Man(a1-2)Man(a1-2)Man(a1-3)]Man
Procedure, shortened: (§1)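 Columns mapping to the same glycan were averaged after glycan names were converted to IUPAC-condensed notation. The data come from 3228 arrays in the Consortium for Functional Glycomics database, limited to those with an available protein sequence. Binding is reported as a within-array Z-score averaged across arrays of one protein sequence and across linkers.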

[2] = molecular target: Man(a1-2)Man(a1-3)[Man(a1-2)Man(a1-6)]Man(a1-6)[Man(a1-2)Man(a1-2)Man(a1-3)]Man(b1-4)GlcNAc(b1-4)GlcNAc
Procedure, shortened: as §1

[3] = molecular target: Man(a1-2)Man(a1-3)[Man(a1-6)]Man(a1-6)[Man(a1-2)Man(a1-3)]Man(b1-4)GlcNAc(b1-4)GlcNAc
Procedure, shortened: as §1

[4] = molecular target: Man(a1-2)Man(a1-6)[Man(a1-3)]Man(a1-6)[Man(a1-2)Man(a1-2)Man(a1-3)]Man
Procedure, shortened: as §1

[5] = molecular target: Man(a1-2)Man(a1-6)[Man(a1-3)]Man(a1-6)[Man(a1-2)Man(a1-2)Man(a1-3)]Man(b1-4)GlcNAc(b1-4)GlcNAc
Procedure, shortened: as §1

Man(a1-3)[Man(a1-6)]Man = molecular target: Man(a1-3)[Man(a1-6)]Man
Procedure, shortened: as §1

[6] = molecular target: Man(a1-3)[Man(a1-6)]Man(a1-6)[Man(a1-2)Man(a1-3)]Man(b1-4)GlcNAc(b1-4)GlcNAc
Procedure, shortened: as §1

[7] = molecular target: Man(a1-3)[Man(a1-6)]Man(a1-6)[Man(a1-3)]Man
Procedure, shortened: as §1

[8] = molecular target: Man(a1-3)[Man(a1-6)]Man(a1-6)[Man(a1-3)]Man(b1-4)GlcNAc(b1-4)GlcNAc
Procedure, shortened: as §1

[9] = molecular target: Man(a1-3)[Man(a1-6)]Man(b1-4)GlcNAc(b1-4)GlcNAc
Procedure, shortened: as §1

[10] = molecular target: Man(a1-3)[Man(a1-6)]Man(b1-4)GlcNAc(b1-4)[Fuc(a1-6)]GlcNAc
Procedure, shortened: as §1

Man(a1-6)Man = molecular target: Man(a1-6)Man
Procedure, shortened: as §1

Man(b1-4)GlcNAc = molecular target: Man(b1-4)GlcNAc
Procedure, shortened: as §1

MurNAc(b1-4)GlcNAc = molecular target: MurNAc(b1-4)GlcNAc
Procedure, shortened: as §1

Neu5Ac(a2-3)Gal = molecular target: Neu5Ac(a2-3)Gal
Procedure, shortened: as §1

[11] = molecular target: Neu5Ac(a2-3)Gal(b1-3)GalNAc
Procedure, shortened: as §1

[12] = molecular target: Neu5Ac(a2-3)Gal(b1-3)GalNAc(b1-3)Gal(a1-4)Gal(b1-4)Glc
Procedure, shortened: as §1

[13] = molecular target: Neu5Ac(a2-3)Gal(b1-3)GalNAc(b1-4)Gal(b1-4)Glc
Procedure, shortened: as §1

[14] = molecular target: Neu5Ac(a2-3)Gal(b1-3)GalNAc(b1-4)[Neu5Ac(a2-3)]Gal(b1-4)Glc
Procedure, shortened: as §1

[15] = molecular target: Neu5Ac(a2-3)Gal(b1-3)GalNAc(b1-4)[Neu5Ac(a2-8)Neu5Ac(a2-3)]Gal(b1-4)Glc
Procedure, shortened: as §1

[16] = molecular target: Neu5Ac(a2-3)Gal(b1-3)GalNAc6S
Procedure, shortened: as §1

[17] = molecular target: Neu5Ac(a2-3)Gal(b1-3)GlcNAc
Procedure, shortened: as §1

[18] = molecular target: Neu5Ac(a2-3)Gal(b1-3)GlcNAc(b1-2)Man
Procedure, shortened: as §1

[19] = molecular target: Neu5Ac(a2-3)Gal(b1-3)GlcNAc(b1-2)Man(a1-3)[GlcNAc(b1-4)][Neu5Ac(a2-3)Gal(b1-3)GlcNAc(b1-2)Man(a1-6)]Man(b1-4)GlcNAc(b1-4)GlcNAc
Procedure, shortened: as §1

[20] = molecular target: Neu5Ac(a2-3)Gal(b1-3)GlcNAc(b1-2)Man(a1-3)[Neu5Ac(a2-3)Gal(b1-3)GlcNAc(b1-2)Man(a1-6)]Man(b1-4)GlcNAc(b1-4)GlcNAc
Procedure, shortened: as §1

[21] = molecular target: Neu5Ac(a2-3)Gal(b1-3)GlcNAc(b1-2)[Neu5Ac(a2-3)Gal(b1-3)GlcNAc(b1-4)]Man(a1-6)[Neu5Ac(a2-3)Gal(b1-3)GlcNAc(b1-2)Man(a1-3)]Man(b1-4)GlcNAc(b1-4)GlcNAc
Procedure, shortened: as §1

[22] = molecular target: Neu5Ac(a2-3)Gal(b1-3)GlcNAc(b1-3)Gal(b1-3)GlcNAc
Procedure, shortened: as §1

[23] = molecular target: Neu5Ac(a2-3)Gal(b1-3)GlcNAc(b1-3)Gal(b1-4)GlcNAc
Procedure, shortened: as §1

[24] = molecular target: Neu5Ac(a2-3)Gal(b1-3)GlcNAc(b1-3)GalNAc
Procedure, shortened: as §1

[25] = molecular target: Neu5Ac(a2-3)Gal(b1-3)GlcNAc(b1-6)GalNAc
Procedure, shortened: as §1

[26] = molecular target: Neu5Ac(a2-3)Gal(b1-3)GlcNAc6S
Procedure, shortened: as §1

[27] = molecular target: Neu5Ac(a2-3)Gal(b1-3)[Fuc(a1-4)]GlcNAc
Procedure, shortened: as §1

[28] = molecular target: Neu5Ac(a2-3)Gal(b1-3)[Fuc(a1-4)]GlcNAc(b1-3)Gal(b1-3)[Fuc(a1-4)]GlcNAc
Procedure, shortened: as §1

[29] = molecular target: Neu5Ac(a2-3)Gal(b1-3)[Fuc(a1-4)]GlcNAc(b1-3)Gal(b1-4)[Fuc(a1-3)]GlcNAc
Procedure, shortened: as §1

[30] = molecular target: Neu5Ac(a2-3)Gal(b1-3)[GlcNAc(b1-6)]GalNAc
Procedure, shortened: as §1

[31] = molecular target: Neu5Ac(a2-3)Gal(b1-3)[Neu5Ac(a2-6)]GalNAc
Procedure, shortened: as §1

[32] = molecular target: Neu5Ac(a2-3)Gal(b1-3)[Neu5Ac(a2-6)]GlcNAc(b1-3)[Fuc(a1-3)[Gal(b1-4)]GlcNAc(b1-6)]Gal(b1-4)Glc
Procedure, shortened: as §1

B1: Pwp7 (Candida glabrata) (protein)
chain: MGSSHHHHHHSSGLVPRGSHMASKNPVDFPNLCQYPNLDGAVAGFDTEIYNADPSILINFSLWPILQFPKEWHKTIGRAITTQTNFKLPASDTTLFGVSIPTQNILIEFRGYFIPPKSGTYTFALYLTDDGSAMFLGNDAAFPCGNITSWSNPTNDQVSVSDYDPKKKTLTVYMVAGVAYPLRIAYYNREKGGSLTASFVDPDGLTHSDWNGYIWTLPSCDNCKYS
- glycan array binding signal (z-score) [1]: -0.503
- glycan array binding signal (z-score) [2]: 0.024
- glycan array binding signal (z-score) [3]: -0.415
- glycan array binding signal (z-score) [4]: -0.467
- glycan array binding signal (z-score) [5]: -0.429
- glycan array binding signal (z-score) (Man(a1-3)[Man(a1-6)]Man): -1.03
- glycan array binding signal (z-score) [6]: -0.076
- glycan array binding signal (z-score) [7]: 2.11
- glycan array binding signal (z-score) [8]: 0.871
- glycan array binding signal (z-score) [9]: -0.347
- glycan array binding signal (z-score) [10]: 0.822
- glycan array binding signal (z-score) (Man(a1-6)Man): -1.42
- glycan array binding signal (z-score) (Man(b1-4)GlcNAc): -0.826
- glycan array binding signal (z-score) (MurNAc(b1-4)GlcNAc): -0.426
- glycan array binding signal (z-score) (Neu5Ac(a2-3)Gal): -0.604
- glycan array binding signal (z-score) [11]: 0.382
- glycan array binding signal (z-score) [12]: 0.137
- glycan array binding signal (z-score) [13]: -0.101
- glycan array binding signal (z-score) [14]: 0.447
- glycan array binding signal (z-score) [15]: 0.438
- glycan array binding signal (z-score) [16]: 0.695
- glycan array binding signal (z-score) [17]: -0.487
- glycan array binding signal (z-score) [18]: 0.574
- glycan array binding signal (z-score) [19]: 0.375
- glycan array binding signal (z-score) [20]: -0.273
- glycan array binding signal (z-score) [21]: 1.42
- glycan array binding signal (z-score) [22]: 0.274
- glycan array binding signal (z-score) [23]: -0.467
- glycan array binding signal (z-score) [24]: 0.451
- glycan array binding signal (z-score) [25]: -0.201
- glycan array binding signal (z-score) [26]: -0.613
- glycan array binding signal (z-score) [27]: -0.905
- glycan array binding signal (z-score) [28]: 0.517
- glycan array binding signal (z-score) [29]: 0.414
- glycan array binding signal (z-score) [30]: 1.97
- glycan array binding signal (z-score) [31]: 0.488
- glycan array binding signal (z-score) [32]: 0.952
